This note sets out measurements from ChEMBL document CHEMBL4219137, “A novel templates of piperazinyl-1,2-dihydroquinoline-3-carboxylates: Synthesis, anti-microbial evaluation and molecular docking studies” (Bioorg Med Chem Lett, 2018).

Values after ≈ are worked out from the molar mass of the structure shown.

This assay has as its system Pseudomonas aeruginosa. Description: microbe, parasite or virus in culture. Conditions: MTCC 2453, 24 h.

On to `O=C(O)c1cn(C2CC2)c2cc(N3CCNCC3)c(F)cc2c1=O` [CIPROFLOXACIN], for which the MIC amounted to 0.9 µg/mL (≈ 2.72 µM).
